# Primary screen of a compound library

Protein sequences, listed by entry. Tags and fused reporters are not part of them. Residues count along the entry.
UniProt A4I591, 1-473: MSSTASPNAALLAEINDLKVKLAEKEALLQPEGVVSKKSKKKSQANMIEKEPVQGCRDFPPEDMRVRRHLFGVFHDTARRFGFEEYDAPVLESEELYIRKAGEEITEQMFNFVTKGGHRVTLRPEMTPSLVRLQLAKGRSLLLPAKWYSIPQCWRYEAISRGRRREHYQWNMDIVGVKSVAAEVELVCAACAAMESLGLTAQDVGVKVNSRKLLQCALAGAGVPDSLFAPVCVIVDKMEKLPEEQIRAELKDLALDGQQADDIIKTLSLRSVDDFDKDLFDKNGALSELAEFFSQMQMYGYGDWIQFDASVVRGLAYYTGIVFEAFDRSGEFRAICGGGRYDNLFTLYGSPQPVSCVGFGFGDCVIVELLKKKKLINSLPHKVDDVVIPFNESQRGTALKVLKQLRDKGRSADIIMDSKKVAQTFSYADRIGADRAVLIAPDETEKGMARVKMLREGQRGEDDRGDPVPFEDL
UniProt P9WFT3, whole entry: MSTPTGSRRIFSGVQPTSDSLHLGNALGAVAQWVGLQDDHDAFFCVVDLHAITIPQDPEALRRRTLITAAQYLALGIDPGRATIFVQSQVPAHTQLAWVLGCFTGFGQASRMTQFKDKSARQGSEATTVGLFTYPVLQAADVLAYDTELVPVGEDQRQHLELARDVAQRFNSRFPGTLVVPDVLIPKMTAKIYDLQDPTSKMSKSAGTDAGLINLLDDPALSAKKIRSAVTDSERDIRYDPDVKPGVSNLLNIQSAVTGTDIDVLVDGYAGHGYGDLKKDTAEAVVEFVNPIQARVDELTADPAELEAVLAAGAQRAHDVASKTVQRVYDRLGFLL
UniProt P9WNZ1, whole entry: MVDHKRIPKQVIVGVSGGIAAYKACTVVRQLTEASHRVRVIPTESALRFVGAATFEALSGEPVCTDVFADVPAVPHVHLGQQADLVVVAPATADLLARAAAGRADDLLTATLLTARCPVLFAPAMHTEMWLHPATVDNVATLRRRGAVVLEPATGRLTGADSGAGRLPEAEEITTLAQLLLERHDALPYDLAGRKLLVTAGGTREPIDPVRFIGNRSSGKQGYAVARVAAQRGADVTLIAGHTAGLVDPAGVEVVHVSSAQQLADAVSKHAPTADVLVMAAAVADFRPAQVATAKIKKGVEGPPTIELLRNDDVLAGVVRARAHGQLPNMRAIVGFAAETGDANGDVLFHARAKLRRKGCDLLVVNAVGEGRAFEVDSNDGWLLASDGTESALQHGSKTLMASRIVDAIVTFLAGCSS

Source: ChEMBL document CHEMBL3988442, “University of Dundee, Small-Polar-MMV Screening Library” (2021).

LiHisRS: 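Histidine-tRNA ligase, Leishmania infantum (UniProt A4I591). Enzyme assay of histidyl-tRNA synthetase; the read-out is not stated. Tested at 30 µM. The record gives no direction; compounds that gave an IC50 in retests scored well above the rest, so higher reads as stronger inhibition. The assay is labelled LdHisRS but filed under L. infantum. About 69,000 compounds were tested under these conditions; 0.6% (about 410) showed 50% or more at least once.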
MtTrpRS: 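Tryptophan-tRNA ligase, Mycobacterium tuberculosis (UniProt P9WFT3). Enzyme assay of tryptophanyl-tRNA synthetase; the read-out is not stated. Tested at 10 µM. Higher most likely means stronger inhibition; the record gives no direction and few retests gave an IC50. Size under these conditions: about 65,000 compounds, about 64 of them at 50% or above in at least one test.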
Toxoplasma: 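Assay of Toxoplasma gondii numbers, read through their beta-galactosidase reporter with a colour substrate. Tested at 10 µM. The record gives no direction; the compounds picked for IC50 retests had high values, so higher reads as fewer parasites. Size under these conditions: about 67,000 compounds, about 260 of them at 50% or above in at least one test.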
CoaBC: 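Coenzyme A biosynthesis protein CoaBC, Mycobacterium tuberculosis (UniProt P9WNZ1). Enzyme assay of CoaBC with a phosphate dye (Biomol Green) read at 650 nm. Tested at 30 µM. Higher reads as stronger inhibition, judged from the few compounds that gave an IC50. Most strong results did not repeat in a second test. Size under these conditions: about 67,000 compounds, about 40 of them at 50% or above in at least one test.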

Results are given as percent effect.
The controls that fix the scale are not given in the record; negative values are as filed.
Compounds were drawn at random from those tested, without regard to their results.
A dash means the value is not listed here; it may have been measured.

Compound,LiHisRS,MtTrpRS,Toxoplasma,CoaBC
COCCn1c(=O)n(C)c(=O)c2ccc(C3CCC(CN)CC3)nc21 (centres undefined),11.27,-3.694,-,-6.905
Cc1nc(C)c(-c2nnc(SCC(=O)O)n2C(C)c2ccccc2)o1 (centres undefined),15.07,11.16,-2.351,8.32
Cn1cc(C(=O)N2CC[C@@H]3[C@@H]2CCN3c2ccccn2)cn1,15.97,3.483,-,5.041
COCc1noc(CNc2nc(C3CCCC3)nc3c2CCNCC3)n1,8.889,1.728,-4.5,-4.902
CCOc1ccc(C(=O)N2C[C@H]3CC[C@@H]2CN(C(=O)C2CCC2)C3)cc1,16.8,-2.101,-,2.051
CC(C)c1nnc(NCc2ccsc2)o1,5.833,8.256,-5.936,-
c1ccc(OCc2noc3c2CN(c2ncccn2)CC3)nc1,27.59,0.7551,-,-
Cc1n[nH]c2ncc(CNC3CCN(Cc4ccccn4)CC3)cc12.Cl,-,-,-0.6112,-
CCCOC(=O)N1CCn2nc(-c3nc4ccccc4n3C)cc2C1,11.48,-36.36,1.969,1.316
Cc1cccc(NC(=O)c2cnc(C3CCCNC3)cn2)n1 (centres undefined),-8.696,-11.89,-1.565,-0.2628
CCOC(=O)c1cnn(-c2cc(C)ccn2)c1N,14.29,-13.63,3.308,6.646
Cc1cc(C)n(CC2CCCN2CC(=O)N(C)Cc2ccco2)n1 (centres undefined),13.16,-7.627,15.18,5.471
CN(C)c1ccc2c(c1)CN(C(=O)c1ccco1)C2c1cnco1 (centres undefined),1.709,6.686,-1.649,-
[H][C@@]12CCN(C(=O)Cc3cccc(F)c3)C[C@@]1([H])O[C@H](c1noc(C)n1)C2,-,-,0.7729,-
CN(C)[C@@H]1CCN(C(=O)NC2CCCC2)[C@H]1Cc1ccncc1.O=C(O)C(F)(F)F.O=C(O)C(F)(F)F,-,-,-2.1,-
Cc1nc(CN2CCCn3cnc(COCC4CC4)c3C2)cs1.O=C(O)C(F)(F)F,-,-,0.2463,-
CCc1nc2n(n1)CCCC2NC(=O)Nc1cccc(F)c1F (centres undefined),14.04,-3.027,2.401,3.629
Cn1cnc2c(-c3ccccc3)nc(C3CCNCC3)cc21,14,-6.787,-,0.2463
Cc1cc(C)cc(C(C(=O)O)N(C)CCCN2CCOCC2)c1 (centres undefined),13.33,23.68,-6.76,14.78
N#CC1(C(=O)N2C[C@H]3CC[C@@H]2CN(Cc2cscn2)C3)CCOCC1,-5.195,-6.304,-,-0.7663
COc1c(F)cc(NC(=O)NCc2nncn2C2CC2)cc1F,6.25,-0.5623,-8.102,-1.952
O=C(COc1cccc(F)c1)N1CCCCC1c1ccn2ccnc2n1 (centres undefined),8.247,-,11.96,1.695
CN1C[C@@H](NC(=O)C(C)(C)C)C[C@H]1C(=O)NCc1ncc[nH]1,13.68,-4.64,3.05,4.274
c1cncc(C2COC3(CCN(Cc4nccs4)CC3)C2)c1 (centres undefined),23.61,-1.543,-,-3.457
Cc1c[nH]nc1C1CCCN1Cc1ccncc1 (centres undefined),15.71,-0.9161,2.674,7.039
COc1ccccc1OCCC(=O)NCc1ncc(C)c(OC)c1C,22.22,-0.2469,-2.276,-3.676
Cc1noc([C@@H](C)NCc2cccc(Cl)c2)c1C(=O)O.Cl,-,-,-14.15,-
CN1CCN([C@@H]2CN(C(=O)c3cc4ccc(F)cc4[nH]3)C[C@H]2O)CC1,5.369,-3.017,-20.16,16.21
CCCn1nnnc1COC(=O)C1COc2ccccc2O1 (centres undefined),-3.333,-3.207,-15.61,12.95
COc1ccc(C2CCCN2C(=O)c2cc(C(C)C)on2)cc1 (centres undefined),18.48,2.799,10.51,1.574
NC(=O)CN1CCCN(C(=O)Cc2cccc(C(F)(F)F)c2)CC1,0,13.65,-8.375,-2.089
CCc1nn2c(=N)c(C#N)n[nH]c2c1-c1ccc(OC)cc1,15.22,-0.8039,-,5.711
Cc1cc(Br)cnc1NCCN1CCC(N(C)C)CC1,17.95,-0.838,9.065,-13.08
c1cnc(CC2COCCN(C3CCCCC3)C2)cn1 (centres undefined),16.11,-8.799,-7.57,13.24
O=C(O)C(F)(F)F.O=C(O)C(F)(F)F.[H][C@@]12OCCN(CCOCC)[C@@]1([H])CC[C@H]2OCc1ccccn1,-,-,-27.46,-
CCc1noc(C)c1C(=O)N1CCCC1Cn1cc(C)cn1 (centres undefined),7.576,-6.14,-6.089,3.84
COc1ccccc1-c1cccc(C2CCCN(C3CCOCC3)C2)n1 (centres undefined),12.59,5.026,-9.494,-1.211
O=C(NCCCOC1CCOC1)NC(C1CC1)C1CC1 (centres undefined),11.43,-1.754,-2.412,-
Cn1ccnc1CN1CCCC1CCc1ccccc1 (centres undefined),20,6.881,-4.618,-22.07

4 of the entries, repeated:

Compound	LiHisRS	MtTrpRS	Toxoplasma	CoaBC
c1cncc(C2COC3(CCN(Cc4nccs4)CC3)C2)c1 (centres undefined)	23.61	-1.543	-	-3.457
CCOc1ccc(C(=O)N2C[C@H]3CC[C@@H]2CN(C(=O)C2CCC2)C3)cc1	16.8	-2.101	-	2.051
N#CC1(C(=O)N2C[C@H]3CC[C@@H]2CN(Cc2cscn2)C3)CCOCC1	-5.195	-6.304	-	-0.7663
CCc1noc(C)c1C(=O)N1CCCC1Cn1cc(C)cn1 (centres undefined)	7.576	-6.14	-6.089	3.84